Results are percentages, as filed.
The record does not define 0% and 100%; most values in the screen are far below 50% and negative numbers occur (in some assays of this library far below -100).
This is an unselected part of the compounds tested.

Amino acid sequences for entries named in this document (tags omitted).
UniProt E9BF75, entry or part of it: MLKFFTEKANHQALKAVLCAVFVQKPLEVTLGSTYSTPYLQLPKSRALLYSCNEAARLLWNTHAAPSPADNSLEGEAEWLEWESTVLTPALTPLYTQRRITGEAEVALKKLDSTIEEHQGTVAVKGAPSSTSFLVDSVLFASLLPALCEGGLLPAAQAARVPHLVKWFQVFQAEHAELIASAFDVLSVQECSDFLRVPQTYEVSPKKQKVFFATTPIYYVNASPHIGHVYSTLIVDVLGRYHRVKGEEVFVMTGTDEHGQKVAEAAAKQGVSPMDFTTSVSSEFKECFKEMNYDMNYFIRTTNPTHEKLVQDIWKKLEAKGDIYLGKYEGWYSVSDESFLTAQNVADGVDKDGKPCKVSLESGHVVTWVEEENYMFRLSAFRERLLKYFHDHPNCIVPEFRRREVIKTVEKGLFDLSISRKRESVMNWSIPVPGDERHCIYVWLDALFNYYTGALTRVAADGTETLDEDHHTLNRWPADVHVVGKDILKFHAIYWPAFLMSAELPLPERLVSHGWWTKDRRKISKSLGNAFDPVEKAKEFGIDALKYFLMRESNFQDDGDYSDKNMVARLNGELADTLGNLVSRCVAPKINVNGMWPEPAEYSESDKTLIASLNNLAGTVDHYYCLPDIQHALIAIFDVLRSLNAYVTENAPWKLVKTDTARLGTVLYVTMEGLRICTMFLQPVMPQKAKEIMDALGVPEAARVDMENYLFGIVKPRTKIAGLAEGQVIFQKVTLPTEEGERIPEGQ

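Methionyl-tRNA synthetase (putative), Leishmania donovani (UniProt E9BF75). Primary screen of methionyl-tRNA synthetase; the read-out is not stated. The test concentration is not given. Values are per cent inhibition. About 68,000 compounds were tested under these conditions; 0.035% (about 24) showed 50% or more at least once.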

- Cc1c[nH]c(C2CCCN(C(=O)CCc3c(C)n[nH]c3C)C2)n1 (stereo unspecified) | 15.58%
- Cc1cnccc1N1CCN(C(=O)CCCN2CCCCC2)CC1 | 11.35%
- Cc1ccc(C(=O)Nc2cn[nH]c2)cc1F | 5.464%
- COCc1cc(CC2(NC3CCN(C)CC3)COC2)no1 | 6.189%
- O=C(CCc1ccccc1)N[C@H]1CC[C@@]2(CCC(=O)N2)CC1 | 20.73%
- CN(C)C(=O)COCC1C[C@@H]2OCCN(Cc3ccco3)[C@H]2C1 (stereo partly specified) | 5.19%
- O=C(CO)N1CCC(c2cncc(-c3cccc(Cl)c3)n2)CC1 | 19.86%
- CC(C)=CCN1C[C@H]2CC[C@@H]1CN(C(=O)c1ccc(S(N)(=O)=O)cc1)C2 | 15.08%
- CN(C(=O)c1ccc[nH]1)C1CCC(NC(=O)OC(C)(C)C)CC1 (stereo unspecified) | 16.43%
- Cc1noc(CN(CCO)Cc2cc(Br)ccc2F)n1 | 11.86%
- CN1CCN(C)C2(CCN(Cc3ccsc3)CC2)C1=O | 8.013%
- CCOc1ccc(Cl)c(C(=O)N2CCCC(c3cc(C)[nH]n3)C2)n1 (stereo unspecified) | 15.76%
- Cc1nc(C2(NCC(=O)NCc3cccs3)CCCCC2)no1 | 14.08%
- CCCn1ncc(C(=O)NC2CCN(C3CCOCC3)CC2)c1C | 17.01%
- COCC(=O)N1CC(C(=O)NCC2CC2)C2(CCOCC2)C1 (stereo unspecified) | 19.22%
- CC(C)C(NC(=O)NCC1CC1)c1nnc2n1CCC2 (stereo unspecified) | 12.81%
- CC(=O)NCc1noc2c1CN(Cc1cnn(C)c1)CC2 | 13.04%
- COc1cc(CNC(C)Cn2ccnc2)cc2c1OCO2 (stereo unspecified) | 15.32%
- COC(=O)c1ccc(N2CCN(C(=O)c3cccnc3)C(C)C2)cc1 (stereo unspecified) | 21.23%
- COc1cc(N2CC[C@@H]3O[C@H](C(=O)NCC4CC4)C[C@@H]32)ncn1 | 0.274%
- O=C1CC(c2ccc3c(c2)OCO3)c2c(n3ccsc3nc2=O)N1 (stereo unspecified) | 9.394%
- COc1ccc(CC2(CO)CCN(c3cc(N)ncn3)CC2)cc1 | 15.18%
- Cc1noc(C)c1CN1CC2(CCN(C(=O)c3cccn3C)C2)CC1=O (stereo unspecified) | 12.78%
- Cc1cc(C)cc(Nc2nc(C)cc(=O)n2CC(=O)NC(C)C)c1 | 19.24%
- NC(=O)c1cc(C2CC2)nc2ccc(F)cc12 | 8.355%
- CCOCc1ccc(NC(=O)C(C)C)cc1 | 11.29%
- COCc1cc(N(C)CCc2c(C)n[nH]c2C)ncn1 | -0.625%
- CCNC(=O)[C@@H]1C[C@H](N)CN1Cc1ccc(-c2ccccc2C#N)o1 | 5.897%
- O=C(C1SCCc2sccc21)N1CC(O)C1 (stereo unspecified) | 8.791%
- CC(Cn1cc(Br)cn1)C(=O)Nc1ccncc1 (stereo unspecified) | 17.12%
- CC(C)c1nccn1CC1CCCN1Cc1nc2ccccc2n1C (stereo unspecified) | 19.51%
- COCC(=O)NC[C@H]1CC[C@H](c2nnc(-c3cccnc3)o2)CC1 | 13.29%
- c1cnc(N2CCO[C@H]3CN(CC4CC4)C[C@H]32)nc1 | 16.75%
- COCCCC(=O)NC1(c2cccc(Br)c2)CC1 | 7.609%
- CN1CCCCC1c1ncc2c(n1)CCN(Cc1ccc(F)cc1)C2 (stereo unspecified) | 30.42%
- CC(C)NCc1cccnc1N1CCN(c2ccccn2)CC1 | 5.59%
- CCO[C@@H]1CC[C@H]2[C@H]1OCCN2C(=O)c1ccc(C)o1 | 10.27%
- COC[C@@]12CCC[C@@H]1CN(C(=O)COc1ccccc1OC)C2 | 12.4%
- CCOc1ncccc1NC(=O)c1ccc(C)s1 | 15.01%
- CC(C)OCc1ncn2c1CN(Cc1ccoc1)CCC2 | 11.75%
- NCCc1nc(N(Cc2cncs2)C2CC2)c2ccccc2n1 | 6.25%

The first 5 entries again:

Compound	Inhibition
Cc1c[nH]c(C2CCCN(C(=O)CCc3c(C)n[nH]c3C)C2)n1 (stereo unspecified)	15.58
Cc1cnccc1N1CCN(C(=O)CCCN2CCCCC2)CC1	11.35
Cc1ccc(C(=O)Nc2cn[nH]c2)cc1F	5.464
COCc1cc(CC2(NC3CCN(C)CC3)COC2)no1	6.189
O=C(CCc1ccccc1)N[C@H]1CC[C@@]2(CCC(=O)N2)CC1	20.73

Measurements from “University of Dundee, Small-Polar-MMV Screening Library” (2021), ChEMBL document CHEMBL3988442.